For at least one compound, name, drawing or mass did not settle the structure.
Legend:
[1] = test system: Fibroblast-like synoviocytes (FLS); test: WST-1 proliferation assay; format: cell-based, rat; settings: 20 μg/mL, 72 hours; FIG. 5
Bax/Bcl-2 = test: Apoptosis analysis, Bax/Bcl-2 RT-PCR expression in FLS; format: cell-based, rat; settings: 24 h treatment; compared to the control; FIG. 19

Q: With `COc1cc(/C=C/C(O)=C/C(=O)/C=C/c2ccc(O)cc2)ccc1O` [DMC, demethoxycurcumin] as the compound, how does the “inhibition of FLS proliferation, trend among curcuminoid analogues” value [1] read?
A: Its value is “BDMC>curcumin>DMC”.

Q: What about the “Bax/Bcl-2 ratio (pro-apoptosis), ranking” value (Bax/Bcl-2) of the same compound?
A: Its value is “BDMC>DMC>curcumin”.
